# According to PubChem BioAssay AID1347076 (National Center for Advancing Translational Sciences (NCATS), 2019):
# Several values for one entry are separate records, joined by “and”; a condition that tells them apart may be missing. Equal values may be shown once. Among all 400,000 compounds or so, about 13,000 (3.2%) were called active. The shares of active, inactive and inconclusive entries below differ from those in the screen. Calls follow the shape of the dose curve; as a rule, active = well fitted cell-killing curve with a large enough effect; inconclusive = small, poorly fitted or top-dose-only effect, or effect the other way; inactive = flat fitted curve, though single readings scatter. Potencies beside an inconclusive call are fits to weak or partial responses and may not hold up.
# Assay: qHTS assay for MDR1-selective chemotherapeutics: Primary screen using the drug-selected MDR subline cells KB-V1; also: nearly all actives have a fitted effect of over 60% in size
# Conditions: KB-V1 MDR cells viability, CellTiter-Glo, 72 h; activity change, negative = cytotoxicity: at 46.1 µM (top of the series)
# Method in brief: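 KB-V1 MDR subline cells in DMEM (phenol-red free, 10% FBS) exposed to compounds in qHTS concentration series for 72 h at 37 degrees C. Viability read by CellTiter-Glo luminescence; concentration-effect curves fitted after normalization and correction.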
# % is scaled to controls: 0 for no effect and ±100 for the full control effect; potency is read from the fitted curve at half-maximal effect.
SMILES,Potency,"activity change, negative = cytotoxicity"
COc1ccc(-c2cc(-c3ccccc3)c(C#N)c(SCC(=O)Nc3ncc(C)s3)n2)cc1,"inconclusive: 18.4 µM [cytotoxic, partial curve, poor fit]",–
COc1ccc(CNC(=O)COC(=O)CCOc2ccc(C)cc2)cc1OC,"inconclusive: 29.1 µM [rising, single point]",–
CCn1cc(C(=O)N(C)c2ccc(OC)cc2OC)c2cc(OC)c(OC)cc2c1=O,inactive,–
COc1cc(C2Nc3ccccc3C(=O)N2Cc2ccco2)cc(OC)c1OC (stereo not given),inactive,–
COc1ccc(NC(=O)CSc2nc(-c3ccco3)nc3cc(=O)[nH]n23)cc1Cl,"inconclusive: 29.1 µM [rising, single point]",–
S=c1[nH]nc(-c2cccs2)n1/N=C/c1c(Cl)cccc1Cl,"inconclusive: 29.1 µM [rising, single point]",–
O=C(NC1CCCC1)C1CCN(c2cnccn2)CC1,"inconclusive: 14.6 µM [rising, partial curve]",–
CC(=NCc1ccco1)c1c(C)[nH]n(-c2nc3ccccc3s2)c1=O,"inconclusive: 23.1 µM [cytotoxic, single point]",–
O=C(NCc1ccco1)C(c1ccccc1)N(C(=O)Cc1cccs1)c1cccnc1 (stereo not given),"inconclusive: 29.1 µM [cytotoxic, single point]",–
O=S(=O)(Cc1ccccc1Cl)N1CCN(Cc2ccc3c(c2)OCO3)CC1,"inconclusive: 18.4 µM [cytotoxic, single point]",–
COc1ccc(Cl)cc1NC(=O)C(C)N1CCN(C/C=C/c2ccccc2)CC1 (stereo not given),inactive,–
Cc1cccc2nc(CSc3nc4[nH]ncc4c(=O)n3-c3cccc(Cl)c3)cc(=O)n12,active: 23.1 µM,–
Cc1ccc(S(=O)(=O)N(C)CC(=O)Nc2ccc(C)cn2)cc1,"inconclusive: 14.6 µM [cytotoxic, partial curve]",–
CCOC(=O)c1ccc2[nH]c(CSc3nnc(-c4cccc(F)c4)n3C)cc(=O)c2c1,"inconclusive: 29.1 µM [rising, single point]",–
O=C(Nc1ccc2c(c1)OCCO2)C1CCN(S(=O)(=O)c2cccs2)CC1,active: 14.6 µM,–
CC(=O)Nc1c(C)nn(C(C)=O)c1C,–,inconclusive: 48.9%
Cc1ccc(/C=C2\C(=O)Nc3ccccc32)o1,"inconclusive: 32.6 µM [cytotoxic, partial curve, poor fit]",–
O=C1NC(c2ccc(Cl)cc2)=COc2ccccc21,inactive,–
Cc1ccc(CNc2nccn(-c3cc(C)cc(C)c3)c2=O)cc1,"inconclusive: 16.4 µM [rising, single point]",–
COCC1CCCCN1C(=O)c1ccc(OC2CCN(Cc3ccccn3)CC2)cc1 (stereo not given),"inconclusive: 20.6 µM [cytotoxic, single point]",–
COc1ccc(C(c2nnnn2Cc2ccc(F)cc2)N2CCN(c3ccc(OC)cc3)CC2)cc1 (stereo not given),"inconclusive: 5.8 µM [cytotoxic, partial curve, poor fit]",–
COc1ccc(-c2cc(C(=O)OCC(=O)c3c(N)n(C)c(=O)n(C)c3=O)c3ccccc3n2)cc1,inactive,–
CN(C)S(=O)(=O)c1cccc(-c2cn3cc(Cl)ccc3n2)c1,active: 16.4 µM,–
O=C1CCCc2nc(N3CCN(Cc4ccccc4)CC3)ncc21,active: 20.6 µM,–

SMILES,Potency,"activity change, negative = cytotoxicity"
CC(=O)N[C@@H](C)c1nc2ccccc2n1CCCN1CCN(c2nc(-c3ccc(C)cc3)cs2)CC1,"inconclusive: 18.4 µM [cytotoxic, single point]",–
Cc1ccc(CNc2cc(C)nc3nc(-c4cccc(C)c4)nn23)cc1,"inconclusive: 8.2 µM [cytotoxic, partial curve]",–
O=C1c2ccccc2C2=Nc3ccccc3SC(c3ccccc3F)C12 (stereo not given),"inconclusive: 20.6 µM [cytotoxic, partial curve, poor fit]",–
CCOC(=O)CN1C(=O)c2ccccc2C1=O,"inconclusive: 0.0058 µM [rising, full curve]",–
O=C(/C=C/c1cccc([N+](=O)[O-])c1)c1cccs1,"inconclusive: 29.1 µM [cytotoxic, single point]",–
Nc1ccn(CCCNC2CCN(Cc3ccccc3)CC2)c(=O)n1,inactive,–
O=C(CCC(=O)c1cccs1)NCc1ccc(F)cc1,inactive,–
CN(C(=O)CSc1nc2ccc(NC(=O)COc3ccccc3)cc2s1)c1ccccc1,"inconclusive: 10.3 µM [cytotoxic, partial curve]",–
C=CCn1cccc(C(=O)Nc2cc(OC)c(OC)c(OC)c2)c1=O,"inconclusive: 18.4 µM [cytotoxic, single point]",–
CCCCN(CC)CCCNC(=O)c1ccc(CS(=O)(=O)c2c(Cl)cccc2Cl)o1,inactive,–
CCn1c(SCc2cccc(F)c2)nc2c(c1=O)SCC2,"inconclusive: 29.1 µM [cytotoxic, single point]",–
Cn1c(SCc2ccccc2F)nc2cccnc21,active: 18.4 µM,–
O=C(Nc1nc(-c2ccc3ccccc3c2)cs1)C1CCN(S(=O)(=O)c2cccs2)CC1,active: 2.59 µM,–
COCCN(C(=O)c1ccccc1F)c1nc(-c2ccc(OC)cc2)cs1,inactive,–
CCc1ccc(-c2nc(CN3CCC(C(=O)NCc4ccccc4OC)CC3)c(C)o2)cc1,"inconclusive: 11.2 µM [cytotoxic, partial curve]",–
O=C(O)Cc1sc(NCc2ccco2)nc1-c1ccccc1,"inconclusive: 5.8 µM [rising, full curve]",–
CCC(=O)N1CCc2cc(Br)cc(S(=O)(=O)CCC(=O)NCCc3ccccc3)c21,"inconclusive: 16.4 µM [cytotoxic, single point] and inconclusive: 29.1 µM [cytotoxic, single point]",–
CCOC(=O)c1c(-c2ccccc2)oc2ccc(N(C(C)=O)S(=O)(=O)c3ccc(C)cc3)cc12,"inconclusive: 18.4 µM [cytotoxic, single point]",–
O=C(O)c1c(Cl)cccc1Nc1ccccc1,inactive,–
O=S(=O)(Nc1nc2ccccc2nc1N1CCN(c2ccccn2)CC1)c1ccc(Cl)cc1,"inconclusive: 29.1 µM [cytotoxic, single point]",–
CCCc1cc(C(=O)NC2CCCN(Cc3ccccc3F)C2)no1 (stereo not given),"inconclusive: 0.206 µM [rising, full curve]",–
O=C1OCCC1Sc1nnc(-c2cccnc2)n1-c1ccccc1F (stereo not given),"inconclusive: 23.1 µM [rising, partial curve, poor fit]",–
CCOC(=O)c1c(C)[nH]c(C)c1S(=O)(=O)NCc1ccc(OCC)cc1,inactive,–
C/C=C/c1ccc(O)c(OC)c1,inactive,–

# By substructure: those above with two or more sulfur atoms
SMILES,Potency,"activity change, negative = cytotoxicity"
COc1ccc(-c2cc(-c3ccccc3)c(C#N)c(SCC(=O)Nc3ncc(C)s3)n2)cc1,"inconclusive: 18.4 µM [cytotoxic, partial curve, poor fit]",–
S=c1[nH]nc(-c2cccs2)n1/N=C/c1c(Cl)cccc1Cl,"inconclusive: 29.1 µM [rising, single point]",–
O=C(Nc1ccc2c(c1)OCCO2)C1CCN(S(=O)(=O)c2cccs2)CC1,active: 14.6 µM,–
CN(C(=O)CSc1nc2ccc(NC(=O)COc3ccccc3)cc2s1)c1ccccc1,"inconclusive: 10.3 µM [cytotoxic, partial curve]",–
CCn1c(SCc2cccc(F)c2)nc2c(c1=O)SCC2,"inconclusive: 29.1 µM [cytotoxic, single point]",–
O=C(Nc1nc(-c2ccc3ccccc3c2)cs1)C1CCN(S(=O)(=O)c2cccs2)CC1,active: 2.59 µM,–

# Additional entries follow:

SMILES,Potency,"activity change, negative = cytotoxicity"
COc1ccc(-c2csc(NC(=O)c3c(C)noc3C)n2)cc1,inactive,–
COc1ccc(C(=O)NC(=S)NNC(=O)c2cccnc2)cc1,"inconclusive: 18.4 µM [cytotoxic, partial curve]",–
O=C(Cn1cnc2c(nnn2-c2ccccc2)c1=O)N1CCCc2ccccc21,inactive,–
CCCN(C(=O)CCNC(=O)Cn1cnc2ccccc2c1=O)c1cccc(C)c1,"inconclusive: 11.6 µM [cytotoxic, partial curve, poor fit]",–
COc1ccc(NC(=O)N2CCCC(c3nc(-c4ccc(C(C)C)cc4)no3)C2)cc1 (stereo not given),active: 8.2 µM,–
FC(F)(F)Oc1ccccc1C(c1nnnn1-c1ccc2c(c1)OCCO2)N1CCN(C/C=C/c2ccccc2)CC1 (stereo not given),"inconclusive: 25.9 µM [cytotoxic, single point]",–
CCc1nc2c(OCc3ccc(Cl)cc3Cl)cccn2c1N(C)C(=O)c1ccccc1F,"inconclusive: 29.1 µM [cytotoxic, single point]",–
COC(=O)C1(CC2CC(c3ccncc3)=NO2)CCN(C(=O)OC(C)(C)C)CC1 (stereo not given),"inconclusive: 25.9 µM [cytotoxic, partial curve, poor fit]",–
COc1ccc(-n2nc(C(=O)NCC(=O)NCc3ccco3)c3ccccc3c2=O)cc1Cl,active: 5.8 µM,–
O=S1(=O)CCO[C@H]2CCCC[C@@H]2N1Cc1ccccc1Br,"inconclusive: 16.4 µM [cytotoxic, single point]",–
CCCCCOc1ccc(Cl)cc1CN1CCOCC1,"inconclusive: 23.1 µM [cytotoxic, partial curve, poor fit]",–
O=C1CNCc2[nH]c3ccccc3c2N1c1ccccc1,active: 23.1 µM,–
CCOc1ccccc1C(=O)N1c2ccccc2Sc2ccccc21,inactive,–
O=C(c1cn(-c2ccccc2)nc1-c1cccs1)N1CCOCC1,"inconclusive: 20.6 µM [cytotoxic, partial curve, poor fit]",–
CCOc1ccc(C2C=C(c3ccc(C)cc3)Nc3nnnn32)cc1 (stereo not given),"inconclusive: 20.6 µM [cytotoxic, partial curve]",–
Cc1ccc2nc(-c3ccc(NC(=O)CN4CCN(C(=O)c5ccco5)CC4)cc3)sc2c1,"inconclusive: 4.61 µM [cytotoxic, partial curve]",–
CCOC(=O)c1c(NC(=O)c2ccc(OC)c(OC)c2)sc2c1CCCCC2,inactive,–
CC1CC(C)(C)NC(=S)N1CC(=O)N1CCN(Cc2ccc3c(c2)OCO3)CC1 (stereo not given),"inconclusive: 20.6 µM [cytotoxic, single point]",–
COc1cc(C(=O)O/N=C(\N)c2ccccn2)cc(OC)c1OC,"inconclusive: 18.4 µM [cytotoxic, single point]",–
CCOc1ccc(/C=C/C2=NNC(=O)CC2)cc1,active: 1.84 µM,–
Cc1ccc(C(=O)NCCCNCCCN(C)C)cn1,"inconclusive: 16.4 µM [cytotoxic, single point]",–
CC1CC(C)CN(CCCNC(=O)c2cc3c(s2)-c2ccccc2OC3)C1 (stereo not given),inactive,–
